Experimental data published in the supplement of paper PMC10849652.
This is one part of the list.

Protein sequences, listed by entry. Tags and fused reporters are not part of them. Lines headed by an entry give the natural chain unless they say otherwise; changes in a name come on top.
UniProt P27469: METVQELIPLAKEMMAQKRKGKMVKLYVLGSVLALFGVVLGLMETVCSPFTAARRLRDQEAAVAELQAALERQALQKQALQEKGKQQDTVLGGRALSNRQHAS
UniProt Q06547, whole entry, looked up: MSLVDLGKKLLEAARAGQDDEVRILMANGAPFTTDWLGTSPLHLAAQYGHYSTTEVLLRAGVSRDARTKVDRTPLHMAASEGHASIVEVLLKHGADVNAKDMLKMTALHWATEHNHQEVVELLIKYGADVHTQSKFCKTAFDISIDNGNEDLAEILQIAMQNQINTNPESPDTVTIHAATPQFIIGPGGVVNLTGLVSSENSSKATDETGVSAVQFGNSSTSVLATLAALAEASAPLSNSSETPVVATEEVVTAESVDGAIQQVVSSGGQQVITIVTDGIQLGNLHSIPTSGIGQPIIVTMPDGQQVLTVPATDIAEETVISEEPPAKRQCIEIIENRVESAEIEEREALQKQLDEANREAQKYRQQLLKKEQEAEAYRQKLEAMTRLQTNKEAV
UniProt Q13467, whole entry, looked up: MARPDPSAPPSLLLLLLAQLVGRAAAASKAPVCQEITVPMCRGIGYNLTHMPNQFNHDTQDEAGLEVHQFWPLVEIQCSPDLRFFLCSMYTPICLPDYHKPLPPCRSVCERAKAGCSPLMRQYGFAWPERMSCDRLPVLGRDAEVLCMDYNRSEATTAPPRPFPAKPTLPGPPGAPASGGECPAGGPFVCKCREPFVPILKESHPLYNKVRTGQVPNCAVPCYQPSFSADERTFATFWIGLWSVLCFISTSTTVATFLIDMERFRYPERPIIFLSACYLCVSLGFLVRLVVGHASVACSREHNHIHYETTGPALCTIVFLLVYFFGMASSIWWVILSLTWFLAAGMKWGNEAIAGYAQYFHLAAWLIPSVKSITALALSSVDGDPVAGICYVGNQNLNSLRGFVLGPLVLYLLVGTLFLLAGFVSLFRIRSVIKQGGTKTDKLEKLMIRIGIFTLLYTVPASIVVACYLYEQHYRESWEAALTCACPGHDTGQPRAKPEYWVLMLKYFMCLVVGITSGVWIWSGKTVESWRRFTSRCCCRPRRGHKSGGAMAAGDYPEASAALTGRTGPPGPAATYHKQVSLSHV
UniProt Q14C86: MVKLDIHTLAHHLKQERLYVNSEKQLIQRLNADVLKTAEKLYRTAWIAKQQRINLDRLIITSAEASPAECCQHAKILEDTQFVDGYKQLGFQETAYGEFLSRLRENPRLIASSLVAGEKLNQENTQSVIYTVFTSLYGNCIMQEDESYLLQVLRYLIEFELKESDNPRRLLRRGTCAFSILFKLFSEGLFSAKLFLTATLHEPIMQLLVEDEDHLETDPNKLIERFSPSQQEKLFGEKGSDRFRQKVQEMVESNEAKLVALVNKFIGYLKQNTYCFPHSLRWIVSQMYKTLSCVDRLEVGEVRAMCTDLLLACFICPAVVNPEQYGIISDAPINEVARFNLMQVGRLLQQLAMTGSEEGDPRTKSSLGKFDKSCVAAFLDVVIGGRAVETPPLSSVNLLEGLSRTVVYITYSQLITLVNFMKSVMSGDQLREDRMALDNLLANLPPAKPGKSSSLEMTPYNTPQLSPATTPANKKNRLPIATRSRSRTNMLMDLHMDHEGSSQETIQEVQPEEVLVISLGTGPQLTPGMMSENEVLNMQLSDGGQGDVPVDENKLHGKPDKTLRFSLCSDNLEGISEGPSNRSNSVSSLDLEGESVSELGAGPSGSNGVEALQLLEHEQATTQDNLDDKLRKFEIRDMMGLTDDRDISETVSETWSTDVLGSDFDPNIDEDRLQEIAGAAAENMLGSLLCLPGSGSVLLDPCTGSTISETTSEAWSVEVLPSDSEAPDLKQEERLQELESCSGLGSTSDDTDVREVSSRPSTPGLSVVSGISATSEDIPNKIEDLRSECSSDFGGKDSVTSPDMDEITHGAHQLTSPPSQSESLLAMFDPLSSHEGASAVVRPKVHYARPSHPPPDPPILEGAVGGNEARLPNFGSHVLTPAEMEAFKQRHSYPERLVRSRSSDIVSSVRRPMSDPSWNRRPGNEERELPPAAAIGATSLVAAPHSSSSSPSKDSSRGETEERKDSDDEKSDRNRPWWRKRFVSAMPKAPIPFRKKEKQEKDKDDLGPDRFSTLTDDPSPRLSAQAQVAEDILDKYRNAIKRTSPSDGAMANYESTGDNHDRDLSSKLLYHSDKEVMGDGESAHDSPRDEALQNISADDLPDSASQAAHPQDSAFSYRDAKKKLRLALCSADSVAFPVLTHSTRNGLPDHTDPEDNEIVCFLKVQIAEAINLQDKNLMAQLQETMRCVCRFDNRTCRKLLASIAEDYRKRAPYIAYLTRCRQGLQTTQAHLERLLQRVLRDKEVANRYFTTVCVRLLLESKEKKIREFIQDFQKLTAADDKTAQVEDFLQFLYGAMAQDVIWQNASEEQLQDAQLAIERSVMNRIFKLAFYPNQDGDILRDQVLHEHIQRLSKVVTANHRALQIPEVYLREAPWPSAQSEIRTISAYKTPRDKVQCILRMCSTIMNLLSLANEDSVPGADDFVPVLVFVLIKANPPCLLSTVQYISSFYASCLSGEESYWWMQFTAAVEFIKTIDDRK
UniProt Q92837: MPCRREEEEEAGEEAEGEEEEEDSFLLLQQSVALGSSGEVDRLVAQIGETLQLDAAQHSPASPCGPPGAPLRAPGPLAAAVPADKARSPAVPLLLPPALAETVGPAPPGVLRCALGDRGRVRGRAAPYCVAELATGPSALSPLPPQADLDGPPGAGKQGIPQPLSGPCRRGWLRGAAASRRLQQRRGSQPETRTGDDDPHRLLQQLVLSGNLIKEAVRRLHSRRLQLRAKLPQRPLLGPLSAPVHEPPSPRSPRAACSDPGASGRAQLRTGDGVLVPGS
UniProt P02774: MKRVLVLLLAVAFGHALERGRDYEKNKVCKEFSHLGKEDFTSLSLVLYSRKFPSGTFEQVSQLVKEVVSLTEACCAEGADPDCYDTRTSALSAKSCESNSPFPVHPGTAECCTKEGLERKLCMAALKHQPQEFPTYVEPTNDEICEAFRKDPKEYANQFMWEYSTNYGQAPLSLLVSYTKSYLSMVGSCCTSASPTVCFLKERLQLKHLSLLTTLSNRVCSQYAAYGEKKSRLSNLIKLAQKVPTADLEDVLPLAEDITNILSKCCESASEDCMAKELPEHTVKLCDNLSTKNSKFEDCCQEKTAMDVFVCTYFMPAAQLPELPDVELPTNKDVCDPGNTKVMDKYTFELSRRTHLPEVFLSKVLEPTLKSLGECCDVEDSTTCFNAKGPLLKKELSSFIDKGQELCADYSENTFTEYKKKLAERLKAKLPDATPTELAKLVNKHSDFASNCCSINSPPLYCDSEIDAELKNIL
UniProt Q8TAK5: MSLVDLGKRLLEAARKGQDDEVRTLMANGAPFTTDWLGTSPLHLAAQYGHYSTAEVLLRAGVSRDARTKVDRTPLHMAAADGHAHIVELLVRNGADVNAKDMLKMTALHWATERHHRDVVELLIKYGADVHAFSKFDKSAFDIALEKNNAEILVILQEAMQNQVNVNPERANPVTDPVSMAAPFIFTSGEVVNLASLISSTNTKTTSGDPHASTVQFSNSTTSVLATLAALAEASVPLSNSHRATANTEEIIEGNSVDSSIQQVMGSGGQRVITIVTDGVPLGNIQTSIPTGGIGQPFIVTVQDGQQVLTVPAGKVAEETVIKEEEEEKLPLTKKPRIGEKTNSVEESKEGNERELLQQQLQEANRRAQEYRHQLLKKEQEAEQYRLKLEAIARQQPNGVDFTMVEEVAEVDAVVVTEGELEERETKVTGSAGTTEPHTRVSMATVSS
UniProt Q9NZC3: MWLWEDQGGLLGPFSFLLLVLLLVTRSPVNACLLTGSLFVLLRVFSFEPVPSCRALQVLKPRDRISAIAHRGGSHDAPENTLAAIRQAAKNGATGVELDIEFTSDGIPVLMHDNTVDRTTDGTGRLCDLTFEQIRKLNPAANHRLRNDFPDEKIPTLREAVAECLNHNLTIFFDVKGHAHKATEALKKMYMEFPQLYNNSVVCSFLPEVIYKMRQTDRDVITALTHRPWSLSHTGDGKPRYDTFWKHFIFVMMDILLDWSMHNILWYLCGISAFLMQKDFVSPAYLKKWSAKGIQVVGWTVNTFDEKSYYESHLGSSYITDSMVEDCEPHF
UniProt Q96QD9: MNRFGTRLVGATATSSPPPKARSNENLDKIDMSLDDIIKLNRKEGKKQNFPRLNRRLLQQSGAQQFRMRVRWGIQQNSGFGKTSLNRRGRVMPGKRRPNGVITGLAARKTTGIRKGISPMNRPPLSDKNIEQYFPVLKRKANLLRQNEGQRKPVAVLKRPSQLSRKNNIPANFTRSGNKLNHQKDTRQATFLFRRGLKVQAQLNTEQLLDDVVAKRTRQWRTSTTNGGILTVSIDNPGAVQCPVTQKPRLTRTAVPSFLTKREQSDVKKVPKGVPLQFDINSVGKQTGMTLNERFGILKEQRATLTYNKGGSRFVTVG
UniProt Q9UET6: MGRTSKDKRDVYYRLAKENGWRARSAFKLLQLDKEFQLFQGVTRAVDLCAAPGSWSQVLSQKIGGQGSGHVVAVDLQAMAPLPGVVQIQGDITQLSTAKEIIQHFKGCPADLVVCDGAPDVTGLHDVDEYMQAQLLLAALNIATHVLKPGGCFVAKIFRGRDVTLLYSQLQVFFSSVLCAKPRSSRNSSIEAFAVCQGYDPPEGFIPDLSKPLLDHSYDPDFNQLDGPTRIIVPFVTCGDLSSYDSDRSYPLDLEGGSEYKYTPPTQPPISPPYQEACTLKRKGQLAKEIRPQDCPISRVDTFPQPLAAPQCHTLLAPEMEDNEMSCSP
UniProt P28676: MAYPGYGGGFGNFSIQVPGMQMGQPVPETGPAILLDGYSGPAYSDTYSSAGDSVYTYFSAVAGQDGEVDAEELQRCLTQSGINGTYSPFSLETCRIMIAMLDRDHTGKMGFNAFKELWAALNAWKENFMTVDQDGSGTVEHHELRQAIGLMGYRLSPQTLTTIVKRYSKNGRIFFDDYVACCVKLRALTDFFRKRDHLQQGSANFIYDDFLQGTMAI
UniProt Q9BYC5: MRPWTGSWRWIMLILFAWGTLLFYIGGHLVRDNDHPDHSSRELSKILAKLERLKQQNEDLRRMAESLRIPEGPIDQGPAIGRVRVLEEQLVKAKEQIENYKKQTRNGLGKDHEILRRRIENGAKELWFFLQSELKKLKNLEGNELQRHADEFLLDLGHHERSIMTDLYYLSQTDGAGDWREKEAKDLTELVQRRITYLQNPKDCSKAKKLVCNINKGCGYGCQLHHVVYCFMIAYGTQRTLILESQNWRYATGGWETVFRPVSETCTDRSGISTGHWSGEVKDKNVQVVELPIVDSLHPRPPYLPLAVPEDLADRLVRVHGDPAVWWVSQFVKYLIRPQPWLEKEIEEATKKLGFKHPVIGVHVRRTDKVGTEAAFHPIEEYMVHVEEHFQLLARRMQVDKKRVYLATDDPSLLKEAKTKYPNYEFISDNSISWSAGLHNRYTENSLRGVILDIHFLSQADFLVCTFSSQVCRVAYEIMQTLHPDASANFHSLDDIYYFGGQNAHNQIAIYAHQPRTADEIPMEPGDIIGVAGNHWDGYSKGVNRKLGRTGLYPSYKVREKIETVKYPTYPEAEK
UniProt Q14393: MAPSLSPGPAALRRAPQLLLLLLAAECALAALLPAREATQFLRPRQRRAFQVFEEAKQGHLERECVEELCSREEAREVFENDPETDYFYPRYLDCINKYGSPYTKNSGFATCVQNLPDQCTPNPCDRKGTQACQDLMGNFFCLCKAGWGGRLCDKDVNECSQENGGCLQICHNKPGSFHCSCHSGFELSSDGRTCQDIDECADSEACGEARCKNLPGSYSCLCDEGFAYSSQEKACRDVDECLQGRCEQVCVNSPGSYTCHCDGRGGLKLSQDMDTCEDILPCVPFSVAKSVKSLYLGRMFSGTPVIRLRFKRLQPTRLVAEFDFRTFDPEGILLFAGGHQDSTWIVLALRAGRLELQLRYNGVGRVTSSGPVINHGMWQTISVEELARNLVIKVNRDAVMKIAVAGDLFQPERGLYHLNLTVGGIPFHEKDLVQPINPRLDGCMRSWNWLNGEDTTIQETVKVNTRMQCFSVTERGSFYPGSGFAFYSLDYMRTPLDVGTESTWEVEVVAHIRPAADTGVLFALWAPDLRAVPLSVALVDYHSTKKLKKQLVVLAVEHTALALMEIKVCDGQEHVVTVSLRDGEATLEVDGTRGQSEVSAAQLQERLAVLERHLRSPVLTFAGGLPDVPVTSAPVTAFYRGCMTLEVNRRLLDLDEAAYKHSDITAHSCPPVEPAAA
UniProt P58012: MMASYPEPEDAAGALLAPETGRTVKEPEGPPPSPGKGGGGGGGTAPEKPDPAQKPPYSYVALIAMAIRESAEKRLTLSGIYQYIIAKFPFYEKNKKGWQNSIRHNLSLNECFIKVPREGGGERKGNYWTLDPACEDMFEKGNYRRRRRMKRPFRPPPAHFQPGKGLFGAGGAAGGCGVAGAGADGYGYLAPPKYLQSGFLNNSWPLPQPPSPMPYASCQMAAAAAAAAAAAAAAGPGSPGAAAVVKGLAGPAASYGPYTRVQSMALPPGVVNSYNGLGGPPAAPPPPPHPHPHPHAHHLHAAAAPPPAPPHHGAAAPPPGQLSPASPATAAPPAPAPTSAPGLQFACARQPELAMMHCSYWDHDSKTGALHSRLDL

Columns and labels:
Assay in all cases: log2 fold change, soluble protein after heating vs DMSO (PISA); higher = thermal stabilisation; K562 lysate, 10 uM; active = over 0.2 and 3.5 SD of the protein, either way, in both replicates (recomputed)
[1] = compound: Cc1nc(Nc2ncc(C(=O)Nc3c(C)cccc3Cl)s2)cc(N2CCN(CCO)CC2)n1 [dasatinib]
Summary of the method: (§1)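 K562 pellets were dounce-homogenised in PBS pH 7.4 containing 1 mM MgCl2, and the crude extract, at 1 mg/mL protein, was exposed to 10 μM compound for 30 min. Aliquots were heated for 3 min across 48°C-58°C, pooled, brought to 0.5% NP-40 at 4°C and spun at 21,000xg for 90 min, with the supernatant taken as soluble protein. TMTpro 16plex LC-MS/MS with equalised channel sums quantified that protein. Values are log-two fold changes in thermal stability relative to solvent controls, taken from duplicates.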

[2] = compound: Cn1cc(-c2ccc3c(c2)CCN3C(=O)Cc2cccc(C(F)(F)F)c2)c2c(N)ncnc21
Summary of the method: as §1

[3] = compound: Cn1cc(CNCC2CCN(c3ncc(C(=O)NO)cn3)CC2)c2ccccc21 [quisinostat]
Summary of the method: as §1

[4] = compound: NC(=O)Nc1cc(-c2cccc(F)c2)sc1C(=O)N[C@H]1CCCNC1
Summary of the method: as §1

[5] = compound: Cc1cn(-c2cc(NC(=O)c3ccc(C)c(Nc4nccc(-c5cccnc5)n4)c3)cc(C(F)(F)F)c2)cn1 [nilotinib]
Summary of the method: as §1

[6] = compound: Cc1nc(Nc2n[nH]c3c2CN(C(=O)N[C@H](CN(C)C)c2ccccc2)C3(C)C)c2sccc2n1
Summary of the method: as §1

[7] = compound: Cc1ncc(-c2ccnc(Nc3ccc(S(C)(=O)=O)cc3)n2)n1C(C)C
Summary of the method: as §1

[8] = compound: Cn1cncc1[C@@](N)(c1ccc(Cl)cc1)c1ccc2c(c1)c(-c1cccc(Cl)c1)cc(=O)n2C [tipifarnib]
Summary of the method: as §1

[9] = compound: NC1(c2ccc(-c3nc4ccn5c(=O)[nH]nc5c4cc3-c3ccccc3)cc2)CCC1
Summary of the method: as §1

[10] = compound: NC(=O)c1cnc(N[C@@H]2CCCC[C@@H]2N)nc1Nc1cccc(-n2nccn2)c1
Summary of the method: as §1

Measured: log2 fold change

FRAS1 isoform 2 (UniProt Q86XX4)
inactive: [1] -0.004 | [2] 0.051 | [3] -0.361 | [4] 0.12

G0S2 (UniProt P27469)
inactive: [5] 0.084 | [6] 0.199 | [7] 0.271 | [3] -0.03 | [8] 0.155 | [4] 0.035 | [9] 0.087

GFOD1 (UniProt Q9NXC2)
inactive: [10] 0.021 | [9] 0.18

GDAP1 (UniProt Q8TB36)
inactive: [1] 0.153 | [2] -0.056 | [3] 0.059 | [4] 0.009 | [10] -0.011 | [9] -0.082

GABPB1 isoform 3 (UniProt Q06547)
inactive: [1] -0.086 | [2] 0.034 | [3] -0.017 | [4] -0.012 | [10] -0.037 | [9] -0.016

FZD5 (UniProt Q13467)
inactive: [1] 0.077 | [2] 0.074 | [10] 0.031

GAPVD1 (UniProt Q14C86)
inactive: [10] -0.023

FOXO3B, A0A2Z4LIS9
inactive: [1] -0.004 | [2] 0.04

GEMIN8 (UniProt Q9NWZ8)
inactive: [5] 0.102 | [6] 0.063 | [7] -0.018 | [3] -0.088 | [8] -0.025 | [4] 0.074 | [10] -0.028 | [9] -0.012

FRAT1 (UniProt Q92837)
inactive: [1] 0.022 | [2] 0.173

GALNT4 (UniProt Q8N4A0)
inactive: [1] -0.081 | [2] 0.119 | [3] 0.064 | [4] -0.077 | [10] -0.123

FSCN2 isoform 2 (UniProt O14926)
inactive: [3] 0.25 | [4] -0.035

GC isoform 3 (UniProt P02774)
inactive: [1] 0.044 | [2] -0.114 | [3] 0.175 | [4] -0.076

FUS (UniProt H3BPE7)
inactive: [1] 0.053 | [2] -0.043

GBP2 (UniProt P32456)
inactive: [1] 0.222 | [2] -0.096 | [3] -0.106 | [4] 0.033 | [10] 0.067 | [9] 0.161

FRMPD2 (UniProt Q68DX3)
inactive: [5] -0.126 | [6] 0.11 | [7] 0.09 | [8] 0.021 | [10] -0.08 | [9] -0.419

GANC (UniProt Q8TET4)
inactive: [1] -0.177 | [2] -0.166 | [3] 0.09 | [4] -0.006 | [10] 0.111 | [9] -0.067

GDPD5 (UniProt Q8WTR4)
inactive: [3] -0.034 | [4] 0.011

GARS1 (UniProt H7C443)
inactive: [10] 0.005

GAB3 isoform 2 (UniProt Q8WWW8)
inactive: [1] 0.167 | [2] 0.04 | [3] -0.002 | [4] -0.036

FRMPD3 (UniProt Q5JV73)
inactive: [5] -0.178 | [6] 0.047 | [7] -0.286 | [8] 0.075 | [10] 0.158 | [9] -0.065

Two consecutive entries out of the list so far, quoted:
GABPB1 isoform 3 (UniProt Q06547)
inactive: [1] -0.086 | [2] 0.034 | [3] -0.017 | [4] -0.012 | [10] -0.037 | [9] -0.016

FZD5 (UniProt Q13467)
inactive: [1] 0.077 | [2] 0.074 | [10] 0.031

Later entries.

GAA (UniProt P10253)
inactive: [5] 0.058 | [6] 0.115 | [7] 0.267 | [3] 0.024 | [8] -0.336 | [4] 0.007 | [10] -0.014 | [9] -0.003

GABPB2 (UniProt Q8TAK5)
inactive: [1] 0.011 | [2] -0.005 | [3] -0.109 | [4] 0.023

GDE1 (UniProt Q9NZC3)
inactive: [1] 0.012 | [2] -0.012 | [3] 0.085 | [4] 0.029 | [10] -0.02 | [9] -0.022

FYN (UniProt P06241)
inactive: [1] 0.02 | [2] 0.004 | [3] 0.022 | [4] -0.029 | [10] -0.025 | [9] 0.043

GAGE1 (UniProt Q13065)
inactive: [10] 0.052

FUNDC2 (UniProt H7C0K8)
inactive: [5] -0.136 | [6] 0.166 | [7] 0.162 | [8] 0.073 | [10] -0.033

FYTTD1 (UniProt Q96QD9)
inactive: [1] -0.044 | [2] 0.052 | [3] -0.071 | [4] 0.029 | [9] 0.032

FTSJ1 isoform 2 (UniProt Q9UET6)
inactive: [10] -0.019

FUT1 (UniProt P19526)
inactive: [3] -0.013 | [4] 0.008

FUT11 (UniProt Q495W5)
inactive: [5] -0.037 | [6] -0.026 | [7] -0.011 | [3] 0.025 | [8] 0.052 | [4] 0.078 | [10] 0.107 | [9] -0.088

GCA (UniProt P28676)
inactive: [5] 0.071 | [6] -0.11 | [7] 0.096 | [8] -0.141 | [10] -0.118 | [9] -0.017

G3BP2 isoform 2 (UniProt Q9UN86)
inactive: [1] 0.159 | [2] 0.299 | [3] 0.106 | [4] 0.01 | [10] -0.052

GALNT3 (UniProt Q14435)
inactive: [3] 0.078 | [4] 0.035

GALNT10 (UniProt Q86SR1)
inactive: [1] -0.048 | [2] 0.087 | [10] -0.063 | [9] -0.092

FUT8 (UniProt Q9BYC5)
inactive: [10] -0.019 | [9] 0.071

GAS6 isoform 1 (UniProt Q14393)
inactive: [3] 0 | [4] 0.318 | [10] 0.036 | [9] 0.146

GALNT7 (UniProt H0YAH3)
inactive: [5] 0.078 | [6] -0.261 | [7] 0.048 | [8] -0.034 | [9] -0.008

FOXL2 (UniProt P58012)
inactive: [1] 0.023 | [2] -0.013 | [10] -0.15 | [9] 0.076

GFOD2 (UniProt Q3B7J2)
inactive: [1] 0.201 | [2] 0.139 | [10] 0.026 | [9] -0.232
